# PubChem BioAssay AID1471 (National Center for Advancing Translational Sciences (NCATS), 2008)
# About 310 (0.13%) of roughly 230,000 compounds were called active. This list was built around the results that the source calls inconclusive (neither active nor inactive); the mix of calls is not that of the screen. Calls follow the shape of the dose curve; as a rule, active = well fitted activation curve with a large enough effect; inconclusive = small, poorly fitted or top-dose-only effect; inactive = no such curve, though single readings can be large or run the other way. Where the call is inconclusive, the potency comes from a doubtful curve fit. Where a structure was tested more than once in an assay, its records may differ in their call.
# Assay: qHTS Multiplex Assay to Identify Dual Action Probes in a Cell Model of Huntington: Cytoprotection (ATP); also: nearly all actives have a fitted effect of over 45% in size;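 as to cytoprotection (ATP increase): toxic huntingtin expression switched on by the ecdysone agonist tebufenozide; % of control where 0% means no effect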
# Conditions: PC12 HTT-Q103 induced, ATP luminescence, 40 h; cytoprotection (ATP increase): at 56.4 µM (top of the series)
# Procedure, shortened: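 Rat PC12, Q103 Htt exon1-GFP fusion, ecdysone promoter; tebufenozide inducer 100 nM final; compound titration; qHTS, 1500 cells/well; ATPlite luminescent read.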
# Potency is read from the fitted curve at half-maximal effect.
Structure (SMILES),Potency,cytoprotection (ATP increase)
N=C1SCC(=O)N1Cc1ccccc1,"inconclusive: 31.6 µM [activator, single point]",–
Cc1ccccc1N1C(=O)NC(=O)/C(=C/c2ccc(N3CCOCC3)o2)C1=O,–,inactive: 8.71% [at 10 µM]
O=P1(Oc2ccccc2)CC=C[C@H](COCc2ccccc2)O1 (stereo not given in full),"inconclusive: 3.16 µM [activator, partial curve]",–
O[C@H]1[C@H](O)[C@@H](O)CN2CC[C@H](O)[C@H]12,"inconclusive: 7.08 µM [activator, full curve]",–
C[C@]12CC[C@H](O)C[C@@H]1CC[C@H]1[C@H]2CC[C@]2(C)C(=O)CC[C@@H]12,"inconclusive: 3.16 µM [activator, single point]",–
CN1CCN(c2ncc3ncc(=O)n(C)c3n2)CC1,"inconclusive: 20 µM [activator, partial curve]",–
O=C1C=C2C=CC3C[C@@]2(O1)C1CCCCN31 (stereo not given in full),active: 1.58 µM,–
O=C(Cl)c1ccccc1F,"inconclusive: 39.8 µM [activator, single point]",–
C=C(Cl)CCl,"inconclusive: 10 µM [activator, single point]",–
CCN(CC)P(c1n(C)cc[n+]1C)N(CC)CC,"inconclusive: 0.447 µM [activator, partial curve]",–
O=C1OC(c2ccc(O)c(S(=O)(=O)O)c2)(c2ccc(O)c(S(=O)(=O)O)c2)c2c(Br)c(Br)c(Br)c(Br)c21,"inconclusive: 17.8 µM [activator, single point]",–
NC[C@H](CC(=O)O)c1ccc(Cl)cc1,"inconclusive: 0.1 µM [activator, partial curve, poor fit]",–
COc1ccc(CN2C(=O)CC(=O)NC2=O)cc1,–,inactive: -0.367%
N#CC(C#N)=Cc1ccc(-c2ccccc2)o1,"inconclusive: 0.447 µM [activator, partial curve]",–
CC1(C)C(O)CC(O)[C@]2(C)C1CC(O)[C@]1(C)C2CC[C@@]2(C)C(c3ccoc3)CC3OC312 (stereo not given in full),"inconclusive: 22.4 µM [activator, partial curve, poor fit]",–
CN1CCN(C(=O)O[C@H]2c3nccnc3C(=O)N2c2ccc(Cl)cn2)CC1,"inconclusive: 0.562 µM [activator, single point]",–
CC(C)(C)c1o[nH]c(=O)c1C[C@H](N)C(=O)O,"inconclusive: 12.6 µM [activator, partial curve, poor fit]",–
O=c1cc(C2CCNCC2)[nH][nH]1,"inconclusive: 35.5 µM [activator, single point]",–
Clc1cncc(N2CCNCC2)n1,active: 0.158 µM,–
Cc1nnc2n1-c1ccc(Cl)cc1C(c1ccccc1)=NC2,"inconclusive: 0.224 µM [activator, full curve, poor fit]",–

Structure (SMILES),Potency,cytoprotection (ATP increase)
O=c1[nH]oc2c1CCNC2,"inconclusive: 10 µM [activator, partial curve, poor fit]",–
O=C(NCCN1CCOCC1)c1ccc(Cl)nc1Cl,"inconclusive: 3.98 µM [activator, partial curve]",–
COC[C@H]([C@@H](O)[C@@H](O)C(=O)NCC[C@@H](C)c1nc(/C=C/C[C@H]2OC3(C[C@H](O)[C@H]2C)OC([C@@H](C[C@@H](O)[C@@H](C)[C@@H](O)[C@@H](C)/C=C(C)/C(C)=C/C=C/C(C)=C\C#N)OC)[C@@H](OP(=O)(O)O)C3(C)C)co1)N(C)C (stereo not given in full),"inconclusive: 10 µM [activator, partial curve, poor fit]",–
CNCCc1cnc[nH]1,"inconclusive: 0.355 µM [activator, partial curve, poor fit]",–
O=C(CN1CCCCC1)Nc1ccc(Br)cc1C(=O)c1ccccc1Cl,"inconclusive: 5.62 µM [activator, single point]",–
COc1ccc2c(c1OC)C(=O)O[C@H]2[C@H]1c2cc3c(cc2CCN1C)OCO3,"inconclusive: 2 µM [activator, single point]",–
O=C1NO[C@H]2[C@@H]1CN[C@@H]2C(=O)O,"inconclusive: 1.26 µM [activator, partial curve]",–
O=[N+]([O-])c1ccc(O[C@H]2O[C@@H](CO)[C@@H](O)[C@@H](O)[C@@H]2F)c([N+](=O)[O-])c1,–,inactive: -20.7% [at 1.9 µM]
N=C1c2ccccc2CN1c1ncccn1,"inconclusive: 35.5 µM [activator, partial curve, poor fit]",–
CNC(C)[C@@H](O)c1ccccc1 (stereo not given in full),"inconclusive: 7.08 µM [activator, full curve, poor fit]",–
CC1CCCN(c2ccc(C(=O)N3CCC4(CC3)OCCO4)cc2[N+](=O)[O-])C1 (stereo not given),"inconclusive: 0.0891 µM [activator, full curve, poor fit]",–
O=P(NS(=O)(=O)c1ccc(Cl)cc1)(Oc1ccccc1)Oc1ccccc1,–,inactive: 2.33% [at 10 µM]
CC(=O)OC1CC[C@]2(C)C(CCC3C2CC[C@]2(C)C(C4=CC(=O)OC4)C(OC(C)=O)CC32O)C1 (stereo not given in full),"inconclusive: 31.6 µM [activator, single point]",–
CN1CCc2cc3c(cc2[C@@H]1O)OCO3,"inconclusive: 0.0501 µM [activator, full curve, poor fit]",–
CC(C)Oc1cccnc1N(C)C1CCN(Cc2ccccc2)CC1,"inconclusive: 0.001 µM [activator, full curve, poor fit]",–
Clc1nc(Cl)nc(Cl)n1,"inconclusive: 39.8 µM [activator, single point]",–
O=C1CC(=O)N(c2ccc3c(c2)OCO3)C(=O)N1,–,inactive: 16.7% [at 0.074 µM]
O=C(CCCN1CCC2(CC1)C(=O)NCN2c1ccccc1)c1ccc(F)cc1,"inconclusive: 0.794 µM [activator, single point]",–
O=C1C[C@@H]2OCC=C3CN4CC[C@]56c7ccccc7N1[C@@H]5[C@@H]2[C@H]3C[C@H]46 (tested in a mixture with another compound),"inconclusive: 3.98 µM [activator, single point]",–
CN(C(=O)Cc1ccc(Cl)c(Cl)c1)[C@H](CN1CCCC1)c1cccc(N=C=S)c1,–,inactive: -88.8%

# Complete entries as entered above:
# CNC(C)[C@@H](O)c1ccccc1 (stereo not given in full) is listed with Potency: inconclusive: 7.08 µM [activator, full curve, poor fit]
# CN1CCc2cc3c(cc2[C@@H]1O)OCO3 is listed with Potency: inconclusive: 0.0501 µM [activator, full curve, poor fit]
